# The supplement of paper PMC10849652
# Amino acid sequences for entries named in this document (tags omitted). A change or cut given only in a name is not applied to a line headed by its entry.
# UniProt Q9UG56: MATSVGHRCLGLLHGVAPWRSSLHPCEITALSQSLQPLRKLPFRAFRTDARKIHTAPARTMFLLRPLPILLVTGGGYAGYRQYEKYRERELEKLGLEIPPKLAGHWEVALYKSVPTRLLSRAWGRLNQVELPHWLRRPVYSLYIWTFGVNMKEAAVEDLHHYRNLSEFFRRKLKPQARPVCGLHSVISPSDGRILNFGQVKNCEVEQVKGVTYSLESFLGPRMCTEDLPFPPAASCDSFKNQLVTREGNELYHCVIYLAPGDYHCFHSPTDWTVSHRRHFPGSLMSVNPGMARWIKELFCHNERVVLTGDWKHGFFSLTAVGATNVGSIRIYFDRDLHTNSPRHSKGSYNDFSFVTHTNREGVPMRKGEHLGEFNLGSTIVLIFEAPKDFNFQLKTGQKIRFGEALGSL
# UniProt Q00722, whole entry, looked up: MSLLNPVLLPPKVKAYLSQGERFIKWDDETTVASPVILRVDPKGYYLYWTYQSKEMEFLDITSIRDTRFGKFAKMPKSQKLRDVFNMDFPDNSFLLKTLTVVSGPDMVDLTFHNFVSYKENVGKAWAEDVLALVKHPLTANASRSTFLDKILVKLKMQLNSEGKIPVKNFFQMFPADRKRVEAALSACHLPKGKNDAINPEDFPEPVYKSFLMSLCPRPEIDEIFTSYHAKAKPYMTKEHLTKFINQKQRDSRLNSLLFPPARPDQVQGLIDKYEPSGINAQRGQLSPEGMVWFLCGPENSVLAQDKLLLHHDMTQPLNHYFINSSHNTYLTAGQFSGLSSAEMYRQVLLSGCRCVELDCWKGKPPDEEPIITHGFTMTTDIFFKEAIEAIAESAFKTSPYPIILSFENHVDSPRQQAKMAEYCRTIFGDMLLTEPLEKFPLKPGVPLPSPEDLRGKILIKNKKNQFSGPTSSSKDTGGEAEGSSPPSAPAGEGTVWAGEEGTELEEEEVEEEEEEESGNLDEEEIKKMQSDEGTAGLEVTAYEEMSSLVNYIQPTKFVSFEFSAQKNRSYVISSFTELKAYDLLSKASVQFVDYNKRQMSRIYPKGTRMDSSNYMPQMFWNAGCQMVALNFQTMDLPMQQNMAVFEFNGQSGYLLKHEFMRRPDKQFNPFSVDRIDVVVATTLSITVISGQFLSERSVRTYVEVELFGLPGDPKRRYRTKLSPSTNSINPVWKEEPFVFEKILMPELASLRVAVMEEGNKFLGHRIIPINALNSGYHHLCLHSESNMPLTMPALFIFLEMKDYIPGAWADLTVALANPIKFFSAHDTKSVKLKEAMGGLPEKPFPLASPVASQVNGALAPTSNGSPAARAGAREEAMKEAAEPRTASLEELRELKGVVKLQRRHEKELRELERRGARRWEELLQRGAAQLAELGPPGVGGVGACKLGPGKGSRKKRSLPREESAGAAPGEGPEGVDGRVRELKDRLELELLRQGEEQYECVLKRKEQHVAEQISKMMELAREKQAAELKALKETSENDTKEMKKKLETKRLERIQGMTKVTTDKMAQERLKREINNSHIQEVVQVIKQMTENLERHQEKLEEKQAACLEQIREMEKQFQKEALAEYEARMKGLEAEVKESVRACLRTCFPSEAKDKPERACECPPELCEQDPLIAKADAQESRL
# UniProt Q9H490: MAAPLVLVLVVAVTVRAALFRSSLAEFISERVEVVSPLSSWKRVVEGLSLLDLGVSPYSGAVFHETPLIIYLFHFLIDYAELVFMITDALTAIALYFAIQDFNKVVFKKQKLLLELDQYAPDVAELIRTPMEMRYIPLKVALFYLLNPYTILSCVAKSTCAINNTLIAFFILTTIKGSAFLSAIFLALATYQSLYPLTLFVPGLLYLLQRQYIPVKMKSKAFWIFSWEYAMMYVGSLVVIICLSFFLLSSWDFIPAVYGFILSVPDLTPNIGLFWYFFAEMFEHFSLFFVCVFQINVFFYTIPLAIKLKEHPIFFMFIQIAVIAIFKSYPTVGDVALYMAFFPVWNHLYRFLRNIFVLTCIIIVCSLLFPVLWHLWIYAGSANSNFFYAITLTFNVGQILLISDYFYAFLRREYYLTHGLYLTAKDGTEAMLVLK
# UniProt Q9Y237, whole entry, looked up: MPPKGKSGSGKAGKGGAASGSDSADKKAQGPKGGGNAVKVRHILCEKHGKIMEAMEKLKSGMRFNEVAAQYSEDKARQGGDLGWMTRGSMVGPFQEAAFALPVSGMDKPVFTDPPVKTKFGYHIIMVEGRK
# UniProt Q8IZ21: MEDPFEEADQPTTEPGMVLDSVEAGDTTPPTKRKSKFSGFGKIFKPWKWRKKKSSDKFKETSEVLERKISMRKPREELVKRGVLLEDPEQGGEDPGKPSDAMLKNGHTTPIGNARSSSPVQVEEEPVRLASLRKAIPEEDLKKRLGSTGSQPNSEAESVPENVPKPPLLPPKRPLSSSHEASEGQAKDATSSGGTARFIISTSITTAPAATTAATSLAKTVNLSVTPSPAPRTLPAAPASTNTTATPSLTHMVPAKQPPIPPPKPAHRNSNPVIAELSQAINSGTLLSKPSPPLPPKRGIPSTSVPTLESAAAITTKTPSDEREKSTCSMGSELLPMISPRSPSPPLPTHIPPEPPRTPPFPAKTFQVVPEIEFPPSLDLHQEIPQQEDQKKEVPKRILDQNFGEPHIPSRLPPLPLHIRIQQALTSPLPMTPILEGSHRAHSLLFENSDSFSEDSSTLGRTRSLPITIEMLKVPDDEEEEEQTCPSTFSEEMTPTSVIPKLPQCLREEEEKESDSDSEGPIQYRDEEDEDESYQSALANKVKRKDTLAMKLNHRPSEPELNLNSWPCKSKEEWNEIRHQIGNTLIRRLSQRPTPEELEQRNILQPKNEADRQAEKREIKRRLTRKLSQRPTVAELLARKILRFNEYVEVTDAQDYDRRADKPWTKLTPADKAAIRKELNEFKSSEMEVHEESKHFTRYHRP
# UniProt Q96S99: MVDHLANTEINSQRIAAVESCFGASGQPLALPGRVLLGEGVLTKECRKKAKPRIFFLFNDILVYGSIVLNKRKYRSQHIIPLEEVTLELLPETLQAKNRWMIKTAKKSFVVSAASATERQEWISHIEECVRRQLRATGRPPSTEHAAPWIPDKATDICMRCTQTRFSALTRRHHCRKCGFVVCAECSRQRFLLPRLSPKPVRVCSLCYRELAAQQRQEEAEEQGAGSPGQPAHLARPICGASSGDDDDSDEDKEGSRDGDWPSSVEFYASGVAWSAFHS
# UniProt Q15111: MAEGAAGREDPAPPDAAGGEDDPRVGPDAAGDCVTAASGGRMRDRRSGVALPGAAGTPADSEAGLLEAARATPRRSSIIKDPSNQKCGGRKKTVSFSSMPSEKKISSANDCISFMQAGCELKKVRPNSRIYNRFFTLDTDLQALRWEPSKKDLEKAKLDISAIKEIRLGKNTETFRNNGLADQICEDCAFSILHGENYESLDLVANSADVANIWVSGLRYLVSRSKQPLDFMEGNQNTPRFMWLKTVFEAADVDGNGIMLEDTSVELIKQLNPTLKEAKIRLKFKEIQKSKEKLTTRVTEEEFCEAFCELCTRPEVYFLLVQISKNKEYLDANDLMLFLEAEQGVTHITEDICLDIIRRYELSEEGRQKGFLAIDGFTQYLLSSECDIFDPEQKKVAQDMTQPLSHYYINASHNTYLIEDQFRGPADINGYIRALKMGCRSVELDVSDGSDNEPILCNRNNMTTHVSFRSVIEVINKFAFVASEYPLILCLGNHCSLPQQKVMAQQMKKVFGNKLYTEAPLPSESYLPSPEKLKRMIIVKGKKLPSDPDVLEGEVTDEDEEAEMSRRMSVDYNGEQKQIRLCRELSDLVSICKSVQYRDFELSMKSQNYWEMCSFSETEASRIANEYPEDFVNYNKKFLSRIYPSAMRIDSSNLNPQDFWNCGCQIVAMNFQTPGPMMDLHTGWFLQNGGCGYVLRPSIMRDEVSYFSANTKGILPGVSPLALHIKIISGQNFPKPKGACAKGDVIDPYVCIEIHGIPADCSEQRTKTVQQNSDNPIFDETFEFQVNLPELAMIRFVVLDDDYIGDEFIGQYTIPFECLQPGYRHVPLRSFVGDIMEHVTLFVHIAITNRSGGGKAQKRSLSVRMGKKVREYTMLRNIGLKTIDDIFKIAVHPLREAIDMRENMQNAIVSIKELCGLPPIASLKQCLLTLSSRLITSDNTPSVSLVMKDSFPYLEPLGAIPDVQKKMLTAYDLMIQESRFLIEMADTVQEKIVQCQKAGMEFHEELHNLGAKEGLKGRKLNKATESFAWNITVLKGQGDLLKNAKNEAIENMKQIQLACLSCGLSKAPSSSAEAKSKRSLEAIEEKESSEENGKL
# UniProt P30613: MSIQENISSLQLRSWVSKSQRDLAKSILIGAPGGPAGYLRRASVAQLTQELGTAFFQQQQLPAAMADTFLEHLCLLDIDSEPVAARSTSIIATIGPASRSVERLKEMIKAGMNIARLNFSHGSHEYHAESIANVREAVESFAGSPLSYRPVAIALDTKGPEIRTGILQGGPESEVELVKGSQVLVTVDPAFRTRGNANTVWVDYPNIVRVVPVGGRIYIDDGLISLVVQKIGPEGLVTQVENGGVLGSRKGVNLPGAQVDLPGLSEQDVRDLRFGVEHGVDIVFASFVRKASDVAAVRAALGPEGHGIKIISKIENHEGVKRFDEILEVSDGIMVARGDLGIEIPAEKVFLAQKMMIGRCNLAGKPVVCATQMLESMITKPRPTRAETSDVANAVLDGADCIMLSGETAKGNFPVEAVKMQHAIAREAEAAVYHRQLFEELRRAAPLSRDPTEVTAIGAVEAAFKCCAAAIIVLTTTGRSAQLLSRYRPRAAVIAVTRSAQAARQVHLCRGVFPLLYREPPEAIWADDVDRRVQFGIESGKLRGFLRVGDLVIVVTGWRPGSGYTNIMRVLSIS
# UniProt Q9NWS0, whole entry, looked up: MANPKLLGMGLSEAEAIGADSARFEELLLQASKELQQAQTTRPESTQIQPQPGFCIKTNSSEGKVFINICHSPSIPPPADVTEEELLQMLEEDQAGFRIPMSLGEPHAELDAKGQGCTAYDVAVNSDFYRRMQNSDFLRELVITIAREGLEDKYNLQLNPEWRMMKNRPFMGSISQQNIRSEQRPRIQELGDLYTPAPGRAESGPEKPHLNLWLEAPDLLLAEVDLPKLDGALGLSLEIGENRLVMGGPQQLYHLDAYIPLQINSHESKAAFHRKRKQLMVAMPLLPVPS
# UniProt Q99570, whole entry, looked up: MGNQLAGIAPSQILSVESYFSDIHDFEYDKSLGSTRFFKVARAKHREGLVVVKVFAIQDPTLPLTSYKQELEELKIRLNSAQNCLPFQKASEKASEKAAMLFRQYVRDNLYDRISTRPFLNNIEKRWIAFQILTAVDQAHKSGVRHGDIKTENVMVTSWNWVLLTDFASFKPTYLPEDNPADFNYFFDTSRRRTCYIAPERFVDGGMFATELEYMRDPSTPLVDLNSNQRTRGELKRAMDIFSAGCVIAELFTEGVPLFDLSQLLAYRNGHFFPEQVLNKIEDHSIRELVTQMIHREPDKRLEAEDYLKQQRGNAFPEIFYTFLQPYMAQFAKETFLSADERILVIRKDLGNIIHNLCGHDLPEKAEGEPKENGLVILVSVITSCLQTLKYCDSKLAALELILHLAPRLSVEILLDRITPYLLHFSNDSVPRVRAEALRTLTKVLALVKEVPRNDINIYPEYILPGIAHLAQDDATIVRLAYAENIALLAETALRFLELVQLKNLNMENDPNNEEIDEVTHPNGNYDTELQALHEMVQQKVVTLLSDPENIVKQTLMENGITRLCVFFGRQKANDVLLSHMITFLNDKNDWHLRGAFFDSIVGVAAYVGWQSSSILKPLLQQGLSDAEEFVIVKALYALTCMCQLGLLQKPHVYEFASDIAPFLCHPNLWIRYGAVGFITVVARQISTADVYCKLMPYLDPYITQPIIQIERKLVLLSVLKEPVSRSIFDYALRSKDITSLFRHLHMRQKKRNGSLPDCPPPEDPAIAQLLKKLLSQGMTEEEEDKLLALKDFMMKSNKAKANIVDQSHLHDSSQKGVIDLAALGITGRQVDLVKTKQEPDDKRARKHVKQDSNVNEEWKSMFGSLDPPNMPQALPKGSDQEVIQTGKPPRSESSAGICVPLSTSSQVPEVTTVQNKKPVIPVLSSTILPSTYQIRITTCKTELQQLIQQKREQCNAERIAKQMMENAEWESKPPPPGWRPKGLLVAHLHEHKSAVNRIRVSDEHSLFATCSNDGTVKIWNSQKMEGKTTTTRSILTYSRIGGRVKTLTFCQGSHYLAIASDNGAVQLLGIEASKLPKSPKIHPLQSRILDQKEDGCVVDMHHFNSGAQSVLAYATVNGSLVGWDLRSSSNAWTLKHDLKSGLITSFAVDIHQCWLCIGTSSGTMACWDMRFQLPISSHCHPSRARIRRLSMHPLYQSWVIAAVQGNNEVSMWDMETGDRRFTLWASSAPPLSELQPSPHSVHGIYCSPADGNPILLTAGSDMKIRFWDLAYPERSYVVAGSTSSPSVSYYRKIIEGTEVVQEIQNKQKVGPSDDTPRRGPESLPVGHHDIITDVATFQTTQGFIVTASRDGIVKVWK
# Some of the results follow.
# How the values were obtained:
# Assay in all cases: log2 fold change, soluble protein after heating vs DMSO (PISA); higher = thermal stabilisation; K562 lysate, 10 uM; active = over 0.2 and 3.5 SD of the protein, either way, in both replicates (recomputed)
# nilotinib = compound: Cc1cn(-c2cc(NC(=O)c3ccc(C)c(Nc4nccc(-c5cccnc5)n4)c3)cc(C(F)(F)F)c2)cn1 [nilotinib]
# How it was run: (§1)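 Log-two fold change in thermal stability relative to solvent controls is reported from duplicates. For each sample, crude K562 extract from dounce-homogenised pellets in PBS pH 7.4 with 1 mM MgCl2, at 1 mg/mL protein, was treated with 10 μM compound for 30 min. Aliquots heated for 3 min across 48°C-58°C were pooled, brought to 0.5% NP-40 at 4°C and cleared at 21,000xg for 90 min. The supernatant was quantified by TMTpro 16plex LC-MS/MS with channel sums equalised.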
# [1] = compound: Cc1nc(Nc2n[nH]c3c2CN(C(=O)N[C@H](CN(C)C)c2ccccc2)C3(C)C)c2sccc2n1
# How it was run: as §1
# dasatinib = compound: Cc1nc(Nc2ncc(C(=O)Nc3c(C)cccc3Cl)s2)cc(N2CCN(CCO)CC2)n1 [dasatinib]
# How it was run: as §1
# [2] = compound: Cc1ncc(-c2ccnc(Nc3ccc(S(C)(=O)=O)cc3)n2)n1C(C)C
# How it was run: as §1
# [3] = compound: Cn1cc(-c2ccc3c(c2)CCN3C(=O)Cc2cccc(C(F)(F)F)c2)c2c(N)ncnc21
# How it was run: as §1
# quisinostat = compound: Cn1cc(CNCC2CCN(c3ncc(C(=O)NO)cn3)CC2)c2ccccc21 [quisinostat]
# How it was run: as §1
# tipifarnib = compound: Cn1cncc1[C@@](N)(c1ccc(Cl)cc1)c1ccc2c(c1)c(-c1cccc(Cl)c1)cc(=O)n2C [tipifarnib]
# How it was run: as §1
# [4] = compound: NC(=O)Nc1cc(-c2cccc(F)c2)sc1C(=O)N[C@H]1CCCNC1
# How it was run: as §1
# [5] = compound: NC(=O)c1cnc(N[C@@H]2CCCC[C@@H]2N)nc1Nc1cccc(-n2nccn2)c1
# How it was run: as §1
# [6] = compound: NC1(c2ccc(-c3nc4ccn5c(=O)[nH]nc5c4cc3-c3ccccc3)cc2)CCC1
# How it was run: as §1
# [7] = compound: NCC(=O)Nc1ccc(-n2nc(C(F)(F)F)cc2-c2ccc3c(ccc4ccccc43)c2)cc1
# How it was run: as §1
# vorinostat = compound: O=C(CCCCCCC(=O)Nc1ccccc1)NO [vorinostat]
# How it was run: as §1
# silmitasertib = compound: O=C(O)c1ccc2c(c1)nc(Nc1cccc(Cl)c1)c1ccncc12 [silmitasertib]
# How it was run: as §1
# [8] = compound: O=C1NC(=O)C(c2cnc3ccccn23)=C1c1cn2c3c(cc(F)cc13)CN(C(=O)N1CCCCC1)CC2
# How it was run: as §1
# entospletinib = compound: c1cn2cc(-c3ccc4cn[nH]c4c3)nc(Nc3ccc(N4CCOCC4)cc3)c2n1 [entospletinib]
# How it was run: as §1
Target,log2 fold change (nilotinib),log2 fold change [1],log2 fold change (dasatinib),log2 fold change [2],log2 fold change [3],log2 fold change (quisinostat),log2 fold change (tipifarnib),log2 fold change [4],log2 fold change [5],log2 fold change [6],log2 fold change [7],log2 fold change (vorinostat),log2 fold change (silmitasertib),log2 fold change [8],log2 fold change (entospletinib)
PHKA2 (UniProt P46019),inactive: 0.005,inactive: 0.163,inactive: -0.05,inactive: 0.019,inactive: -0.028,inactive: -0.148,inactive: 0.015,active: 0.302,inactive: 0.001,inactive: -0.037,inactive: 0.017,active: -0.29,inactive: 0.105,inactive: -0.048,inactive: -0.012
PITPNB isoform 3 (UniProt P48739),inactive: 0.012,inactive: 0.012,inactive: 0.053,inactive: -0.022,inactive: -0.019,inactive: 0.049,inactive: 0.007,inactive: -0.026,inactive: -0.005,inactive: -0.004,inactive: -0.015,inactive: 0.099,inactive: 0.015,inactive: -0.013,inactive: 0.051
PISD (UniProt Q9UG56),inactive: -0.019,inactive: 0.019,inactive: 0.008,inactive: 0.008,inactive: 0.088,inactive: -0.017,inactive: 0.006,inactive: 0.133,inactive: 0.044,inactive: 0.031,inactive: -0.031,inactive: 0.113,inactive: 0.067,inactive: 0.15,inactive: -0.043
PLCB2 (UniProt Q00722),inactive: -0.091,inactive: -0.08,inactive: 0.081,inactive: 0.032,inactive: 0.104,inactive: -0.104,inactive: -0.009,inactive: 0.002,inactive: -0.197,inactive: -0.002,inactive: 0.04,inactive: 0.05,inactive: -0.05,inactive: 0.089,inactive: -0.009
PIK3CB (UniProt P42338),inactive: 0.015,inactive: 0.021,inactive: -0.072,inactive: 0.094,inactive: 0.055,inactive: -0.05,inactive: -0.032,inactive: 0.053,inactive: 0.015,active: 0.44,inactive: -0.041,inactive: -0.395,inactive: 0.321,inactive: -0.046,inactive: 0.038
PHLDB1 (UniProt Q86UU1),inactive: -0.035,inactive: -0.012,inactive: 0.002,inactive: -0.006,inactive: -0.046,inactive: -0.243,inactive: -0.003,inactive: 0.028,inactive: -0.036,inactive: 0.004,inactive: 0.022,active: -0.357,inactive: 0.012,inactive: 0.128,inactive: 0.008
PIGU (UniProt Q9H490),inactive: -0.047,inactive: 0.014,inactive: -0.009,inactive: 0.073,inactive: 0.036,inactive: -0.044,inactive: 0.031,inactive: 0.031,inactive: 0.074,inactive: -0.044,inactive: -0.072,inactive: 0.109,inactive: 0.04,inactive: 0.035,
PLCG1 isoform 2 (UniProt P19174),inactive: -0.04,inactive: -0.016,inactive: -0.046,inactive: -0.01,inactive: 0.009,inactive: -0.024,inactive: 0,inactive: 0.017,inactive: 0.034,inactive: -0.007,inactive: -0.016,inactive: -0.246,inactive: 0.085,inactive: 0.006,inactive: -0.019
PIN4 isoform 2 (UniProt Q9Y237),inactive: 0.038,inactive: -0.026,inactive: -0.002,inactive: -0.015,inactive: 0.001,inactive: 0.041,inactive: -0.017,inactive: 0,inactive: -0.034,inactive: 0.002,inactive: -0.001,inactive: 0.075,inactive: -0.005,inactive: -0.031,inactive: -0.013
PHACTR4 isoform 2 (UniProt Q8IZ21),inactive: 0.005,inactive: -0.004,inactive: 0.022,inactive: -0.016,inactive: 0.012,inactive: -0.017,inactive: -0.015,inactive: -0.006,inactive: -0.002,inactive: -0.027,inactive: 0.025,inactive: 0.014,inactive: 0.01,inactive: 0.009,inactive: -0.024
PLEKHF1 (UniProt Q96S99),inactive: -0.03,inactive: -0.028,inactive: -0.016,inactive: 0.012,inactive: -0.027,inactive: -0.009,inactive: -0.012,inactive: 0.021,inactive: -0.002,inactive: -0.023,inactive: -0.019,active: -0.272,inactive: 0.07,inactive: -0.014,inactive: 0.014
PLA2G12A (UniProt Q9BZM1),inactive: -0.013,inactive: 0.006,inactive: 0.079,inactive: -0.364,inactive: 0.043,inactive: -0.258,inactive: 0.017,inactive: -0.006,inactive: 0.062,inactive: 0.024,inactive: -0.028,inactive: 0.093,inactive: 0.03,inactive: 0.032,
PLCL1 (UniProt Q15111),inactive: 0.037,inactive: -0.018,inactive: 0.004,inactive: 0.018,inactive: -0.001,inactive: -0.024,inactive: 0.001,inactive: 0.016,inactive: -0.003,inactive: -0.015,inactive: 0.07,inactive: -0.101,inactive: 0.011,inactive: -0.017,inactive: -0.015
PICALM (UniProt Q13492),inactive: -0.012,inactive: -0.01,inactive: -0.036,inactive: -0.009,inactive: 0.001,inactive: -0.003,inactive: -0.042,inactive: -0.018,inactive: 0.012,inactive: 0.007,inactive: 0.02,inactive: 0.048,inactive: 0.003,inactive: -0.019,inactive: -0.005
PKLR (UniProt P30613),inactive: 0.001,inactive: -0.016,inactive: 0.006,inactive: -0.015,inactive: -0.034,inactive: 0.021,inactive: 0.017,inactive: -0.015,inactive: -0.001,inactive: 0.022,inactive: 0.025,inactive: 0.036,inactive: -0.037,inactive: 0.026,inactive: 0
PI4KA (UniProt P42356),inactive: -0.025,inactive: 0.055,inactive: -0.098,inactive: 0.015,inactive: 0.043,inactive: -0.076,inactive: -0.031,inactive: 0.041,inactive: 0.003,inactive: 0.019,inactive: -0.011,active: -0.426,inactive: 0.077,inactive: 0.004,inactive: 0.031
PIH1D1 (UniProt Q9NWS0),inactive: 0.018,inactive: -0.047,inactive: 0.004,inactive: 0.019,inactive: -0.006,inactive: 0.026,inactive: -0.006,inactive: 0,inactive: 0.049,inactive: -0.031,inactive: -0.027,inactive: 0.032,inactive: 0.012,inactive: 0.01,inactive: 0
PI4K2B (UniProt Q8TCG2),inactive: -0.037,inactive: 0.021,inactive: -0.021,inactive: 0.069,inactive: 0.092,inactive: 0.063,inactive: -0.036,inactive: 0.076,active: 0.689,inactive: 0.009,inactive: -0.038,inactive: -0.054,inactive: 0.041,inactive: 0.011,inactive: 0.014
PIK3R4 (UniProt Q99570),inactive: -0.01,inactive: 0.008,inactive: -0.018,inactive: 0.025,inactive: 0.003,inactive: -0.066,inactive: -0.018,inactive: 0.024,inactive: 0.032,inactive: 0.033,inactive: -0.003,inactive: -0.104,inactive: 0.071,inactive: 0.048,inactive: 0.013

# Shown tab-delimited: entries from further up
Target	log2 fold change (nilotinib)	log2 fold change [1]	log2 fold change (dasatinib)	log2 fold change [2]	log2 fold change [3]	log2 fold change (quisinostat)	log2 fold change (tipifarnib)	log2 fold change [4]	log2 fold change [5]	log2 fold change [6]	log2 fold change [7]	log2 fold change (vorinostat)	log2 fold change (silmitasertib)	log2 fold change [8]	log2 fold change (entospletinib)
PHLDB1 (UniProt Q86UU1)	inactive: -0.035	inactive: -0.012	inactive: 0.002	inactive: -0.006	inactive: -0.046	inactive: -0.243	inactive: -0.003	inactive: 0.028	inactive: -0.036	inactive: 0.004	inactive: 0.022	active: -0.357	inactive: 0.012	inactive: 0.128	inactive: 0.008
PLCL1 (UniProt Q15111)	inactive: 0.037	inactive: -0.018	inactive: 0.004	inactive: 0.018	inactive: -0.001	inactive: -0.024	inactive: 0.001	inactive: 0.016	inactive: -0.003	inactive: -0.015	inactive: 0.07	inactive: -0.101	inactive: 0.011	inactive: -0.017	inactive: -0.015
PICALM (UniProt Q13492)	inactive: -0.012	inactive: -0.01	inactive: -0.036	inactive: -0.009	inactive: 0.001	inactive: -0.003	inactive: -0.042	inactive: -0.018	inactive: 0.012	inactive: 0.007	inactive: 0.02	inactive: 0.048	inactive: 0.003	inactive: -0.019	inactive: -0.005
PI4KA (UniProt P42356)	inactive: -0.025	inactive: 0.055	inactive: -0.098	inactive: 0.015	inactive: 0.043	inactive: -0.076	inactive: -0.031	inactive: 0.041	inactive: 0.003	inactive: 0.019	inactive: -0.011	active: -0.426	inactive: 0.077	inactive: 0.004	inactive: 0.031
PIH1D1 (UniProt Q9NWS0)	inactive: 0.018	inactive: -0.047	inactive: 0.004	inactive: 0.019	inactive: -0.006	inactive: 0.026	inactive: -0.006	inactive: 0	inactive: 0.049	inactive: -0.031	inactive: -0.027	inactive: 0.032	inactive: 0.012	inactive: 0.01	inactive: 0
